Experimental findings from publication PMC5853860 are described below.

This test deals with OsCV-Venus^N (Oryza sativa). As to the kind of experiment: split reporter; BiFC: OsCV-Venus^N and OsGS2-SCFP^C transiently co-expressed in Nicotiana benthamiana leaves; confocal microscopy 2-4 d after infiltration.

These are yes or no findings as the source states them, for the method shown. In cells and extracts the contact can be indirect. Binding can be weak; no strength is given. Sequences can lack the tags named with a protein.

B1: OsGS2-SCFP^C (enzyme, UniProt P14655 49-428)
chain: VSTETTGVVTRMEQLLNMDTTPFTDKIIAEYIWVGGTGIDLRSKSRTISKPVEDPSELPKWNYDGSSTGQAPGEDSEVILYPQAIFKDPFRGGNNILVMCDTYTPAGEPIPTNKRNRAAQVFSDPKVVSQVPWFGIEQEYTLLQRDVNWPLGWPVGGYPGPQGPYYCAVGSDKSFGRDISDAHYKACLYAGINISGTNGEVMPGQWEYQVGPSVGIEAGDHIWISRYILERITEQAGVVLTLDPKPIQGDWNGAGCHTNYSTKSMREDGGFEVIKKAILNLSLRHDLHISAYGEGNERRLTGLHETASIDNFSWGVANRGCSIRVGRDTEAKGKGYLEDRRPASNMDPYVVTALLAETTILWEPTLEAEVLAAKKLALKV
Take B1: the binding entry is on record as “binds”.
